Experiment: Boc solid-phase peptide synthesis; Boc-L-Leu Merrifield resin; diisopropyl carbodiimide; preformed symmetrical anhydrides; preformed HOBT ester
Details: whole synthesis, scale 244.7 g resin

## D-F5-Phe-Gln-Trp-Ala-Val-D-Ala-His-Leu-OMe
  isolated mass: 30.9 g

— patent US5650395A (priority 1995, dated 1997)
